Reference: PubChem BioAssay AID1259308 (NCATS, 2017)

Screen: 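Genes whose loss raises luciferase production in HEK293 cells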 (primary screen)
System: human HEK293 embryonic kidney cells stably expressing firefly luciferase (HEK-CMV-Luc2-Hygro)
Reagent: single siRNA against human genes, 0.8 pmol siRNA per well
Duration: 72 h
Read-out: 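Reporter luminescence and viable-cell signal on separate replicate plates, given as percent of non-targeting control and median/MAD z-scores, plus per-cell luciferase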
Direction: total luciferase, z-score and total luciferase, % of control: higher = more reporter protein produced
Hit rule: 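Active when the median/MAD z-score for overall luciferase is greater than 3; a gene was taken forward for validation with new siRNAs if at least two of its three siRNAs passed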
Meaning of the calls: active = raised luciferase; inactive = no rise
This is a random part of about 59,000 deposited reagents. In the full data, about 1,510 (2.6%) got an active call. 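Calls use total luciferase alone and ignore viability, so some active siRNAs may act by altering cell number.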 Reagents against one gene are numbered here. Not all columns of the deposit are shown. No sequences are given here.

NUCKS1 #1 showed total luciferase, z-score 5.99; total luciferase, % of control 201; active.
After knock-down of NUCKS1 #2 the results were total luciferase, z-score 0.769; total luciferase, % of control 97.2; inactive.
After knock-down of NUCKS1 #3, the record shows total luciferase, z-score 1.39; total luciferase, % of control 110; inactive.
Silencing of MSI1 (musashi RNA binding protein 1) #1 resulted in: total luciferase, z-score -0.419; total luciferase, % of control 73.6; inactive.
MSI1 (musashi RNA binding protein 1) #2 gave total luciferase, z-score 2.49; total luciferase, % of control 131; inactive.
Knock-down of MSI1 (musashi RNA binding protein 1) #3 gave: total luciferase, z-score 2.13; total luciferase, % of control 124; inactive.

Limited to “total luciferase, % of control” (2 entries from above):
NUCKS1 #2	97.2
NUCKS1 #3	110

Further entries follow:
C17orf100 (chromosome 17 open reading frame 100) #1 scored total luciferase, z-score 0.0158; total luciferase, % of control 82.2; inactive.
Depletion of C17orf100 (chromosome 17 open reading frame 100) #2 resulted in: total luciferase, z-score -1.24; total luciferase, % of control 57.3; inactive.
After knock-down of C17orf100 (chromosome 17 open reading frame 100) #3, the record shows total luciferase, z-score 1.05; total luciferase, % of control 103; inactive.
With knock-down of RPUSD3 (RNA pseudouridine synthase D3) #1, the screen gave total luciferase, z-score -0.53; total luciferase, % of control 71.3; inactive.
After knock-down of RPUSD3 (RNA pseudouridine synthase D3) #2, the screen gave total luciferase, z-score -0.984; total luciferase, % of control 62.3; inactive.
RPUSD3 (RNA pseudouridine synthase D3) #3 gave total luciferase, z-score -0.496; total luciferase, % of control 72; inactive.
